Results as given in PMC3936002.
Results are given in words; binding and its absence hold for the method and conditions named. In cells and extracts the contact can be indirect. Some results given as binding are weak or reduced against the parent protein; the word gives no strength.

Chains of the proteins cited; added tags and fusions are not shown.
UniProt O95155: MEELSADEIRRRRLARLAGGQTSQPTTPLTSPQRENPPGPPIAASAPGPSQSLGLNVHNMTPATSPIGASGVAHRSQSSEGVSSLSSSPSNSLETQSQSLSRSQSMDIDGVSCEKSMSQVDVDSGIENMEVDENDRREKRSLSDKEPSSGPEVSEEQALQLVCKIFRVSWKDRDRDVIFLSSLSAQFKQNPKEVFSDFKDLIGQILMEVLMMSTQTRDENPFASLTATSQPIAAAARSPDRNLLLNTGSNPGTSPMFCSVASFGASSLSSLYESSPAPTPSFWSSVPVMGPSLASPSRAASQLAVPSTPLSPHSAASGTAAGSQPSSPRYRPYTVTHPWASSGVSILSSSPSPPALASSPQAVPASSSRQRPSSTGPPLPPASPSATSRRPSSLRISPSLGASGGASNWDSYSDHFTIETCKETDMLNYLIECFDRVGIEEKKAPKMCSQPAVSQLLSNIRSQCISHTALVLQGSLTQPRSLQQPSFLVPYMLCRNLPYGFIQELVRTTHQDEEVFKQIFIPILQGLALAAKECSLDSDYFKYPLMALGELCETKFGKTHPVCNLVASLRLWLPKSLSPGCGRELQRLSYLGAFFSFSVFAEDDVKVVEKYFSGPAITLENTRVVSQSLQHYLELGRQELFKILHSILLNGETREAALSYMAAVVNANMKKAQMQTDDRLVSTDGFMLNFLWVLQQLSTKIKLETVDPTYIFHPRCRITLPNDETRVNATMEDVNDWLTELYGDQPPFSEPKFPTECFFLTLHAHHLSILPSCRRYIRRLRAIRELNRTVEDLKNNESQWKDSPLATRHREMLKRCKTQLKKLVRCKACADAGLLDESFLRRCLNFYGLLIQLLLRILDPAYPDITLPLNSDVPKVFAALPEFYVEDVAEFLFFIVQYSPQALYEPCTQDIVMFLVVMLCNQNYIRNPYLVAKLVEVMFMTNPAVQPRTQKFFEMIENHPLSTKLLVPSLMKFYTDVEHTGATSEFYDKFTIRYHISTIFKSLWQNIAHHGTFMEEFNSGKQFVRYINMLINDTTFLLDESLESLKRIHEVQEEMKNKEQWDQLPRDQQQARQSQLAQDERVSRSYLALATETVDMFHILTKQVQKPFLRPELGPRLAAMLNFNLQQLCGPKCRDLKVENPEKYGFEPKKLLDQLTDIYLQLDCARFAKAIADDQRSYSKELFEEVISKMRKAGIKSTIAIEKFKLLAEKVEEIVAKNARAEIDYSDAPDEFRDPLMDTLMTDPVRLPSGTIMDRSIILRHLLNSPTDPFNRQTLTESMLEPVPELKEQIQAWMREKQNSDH
UniProt Q00987: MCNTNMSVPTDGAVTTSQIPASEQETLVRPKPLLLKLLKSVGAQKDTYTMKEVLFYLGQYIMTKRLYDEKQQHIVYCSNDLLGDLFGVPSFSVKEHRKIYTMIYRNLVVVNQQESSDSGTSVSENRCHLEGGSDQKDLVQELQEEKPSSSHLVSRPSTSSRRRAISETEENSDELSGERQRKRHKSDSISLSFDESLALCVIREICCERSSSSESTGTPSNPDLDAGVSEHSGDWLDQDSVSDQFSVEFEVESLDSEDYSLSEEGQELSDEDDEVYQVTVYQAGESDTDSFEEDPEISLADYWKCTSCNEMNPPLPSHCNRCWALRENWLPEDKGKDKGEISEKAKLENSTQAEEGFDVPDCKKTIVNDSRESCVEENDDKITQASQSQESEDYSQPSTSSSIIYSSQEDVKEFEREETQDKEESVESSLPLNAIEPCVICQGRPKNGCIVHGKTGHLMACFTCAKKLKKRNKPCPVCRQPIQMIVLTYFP

Biological target: UBE4B (human (endogenous in MCF-7)) (UniProt O95155)
Assay: co-IP; MCF-7 cell lysates in HEPES buffer (50 mM HEPES pH 7.2, 250 mM NaCl, 10% glycerol, 1% NP-40, 1.0 mM EDTA, 0.5 mM DTT); incubated 8 h at 4°C on agarose with anti-UBE4B, anti-p53, anti-Hdm2 or IgG control antibodies; western blot; done in both directions

binding: binds
Substance: Hdm2 (from UniProt Q00987 1-491)
